The assay in a line: qHTS Assay to Find Inhibitors of Chronic Active B-Cell Receptor Signaling. The note with it: ABC-DLBCL IkBa-CBG/CBR reporter, luminescence ratio (green luciferase fused to IkBa over red control in TMD8 lymphoma cells), 4 h. The gist of the method: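 TMD8 ABC-DLBCL cells carrying doxycycline-inducible green luciferase fused to IkappaBalpha plus unfused red luciferase were exposed to compounds (up to 46 uM) for 4 hrs at 37C. Activity came from the overlap-corrected green/red luminescence ratio.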
Background: qHTS replaces the single test concentration by a dilution series.

The mark [1] stands for this setting: measured here: CBR red luminescence, cell number.
Where [2] appears, read: measured here: IkBa-CBG green luminescence.

Several values for one entry are separate records, joined by “and”; a condition that tells them apart may be missing. Identical values can stand only once. Some of the results follow. Further columns of the screen follow, without active or inactive calls. Most of these compounds were active or inconclusive in the main read-out, so they are no random draw. Potencies come from curve fits of mixed quality, noted in brackets.

The AC50 is the concentration at which the activity in the assay is half-maximal. In the case of `CC(C)(C)NC(=S)NNC(=O)c1cccc(Br)c1`, the AC50 by setting is: under setting [1], 3.55 µM [rising, single point]; under setting [2], 5.62 µM [falling, single point]. With `Cc1ccc(-c2nc3cc(NC(=O)C(C)C)ccc3o2)cc1`, under setting [1], the half-maximal activity concentration (AC50) is 11.6 µM [rising, partial curve, poor fit]. Turning to `COc1ccc(CCN(C)Cc2ccc(C(=O)Nc3ccccc3)cc2)cc1OC`, the AC50 under setting [1] was 14.1 µM [falling, single point].

Consider `CCn1ncc([N+](=O)[O-])c1C(=O)n1nc(C)cc1C`, for which, under setting [1], the AC50 was 32.6 µM [rising, single point]. Turning to `Clc1ccccc1Nc1c2c(nc3ncnn13)CCC2`, the AC50 under setting [1] was 14.1 µM [rising, partial curve, poor fit]. Same read-out and setting: the same measure for `Cc1ccc2[nH]c3c(c2c1)CCNC3=O`: 7.08 µM [falling, partial curve]; for `Cc1ccc(N2C(=O)C3C4C=CC(CC4)C3C2=O)cc1Br` (stereo not given): 35.5 µM [falling, partial curve, poor fit]. The same measure, in the same setting: the value for `CC(=O)C1=C(O)C(=O)N(CCCN2CCOCC2)C1c1ccccc1[N+](=O)[O-]` (stereo not given) was 35.5 µM [falling, single point]; that for `Cc1ccc2c(C)c(C(=O)N(C)Cc3ccncn3)oc2c1C` was 12.6 µM [rising, single point].

Consider `Clc1ccc(CSc2nnc(-c3c[nH]c4ccccc34)o2)cc1`, for which the AC50 under setting [1] is 29.1 µM [falling, single point]. The same measure, in the same setting: the same measure for `CC(=O)c1ccc(Oc2cc(C)nc(NCc3ccccc3)n2)cc1`: 6.31 µM [falling, single point]; for `C[C@H]1CN([C@@H](C)CO)C(=O)Cc2cc(NC(=O)CCC(F)(F)F)ccc2O[C@H]1CN(C)Cc1ccc(-c2ccccc2)cc1`: 20.6 µM [falling, partial curve]; for `O=C(CN(c1ccccc1)S(=O)(=O)c1ccc(F)cc1)NCc1cccs1`: 23.1 µM [rising, single point]. Take `OC(CN(c1ccccc1)c1ccccc1)Cn1cnc2ccccc21` (stereo not given): under setting [1], the half-maximal activity concentration (AC50) was 7.31 µM [falling, partial curve, poor fit]. Still for that read-out and setting: the value for `O=C(Nc1ccc(S(=O)(=O)Nc2ncccn2)cc1)C1=COCCO1` was 29.1 µM [rising, single point]; that for `CCOC(=O)c1c(C)[nH]c(O)c1C=Nc1ccc(Cl)cc1` was 3.16 µM [falling, partial curve, poor fit]; that for `Cc1ccccc1NC(=O)OCc1ccccc1` was 15.8 µM [falling, partial curve]. Same read-out and setting: the same measure for `CN(C)CCCN(Cc1cc2cc3c(cc2[nH]c1=O)OCO3)C(=S)Nc1cccc(Cl)c1`: 35.5 µM [falling, single point]. Still for that read-out and setting: the value for `CC(=O)c1ccc(NC(=O)C(C)n2nc(-c3ccccc3)c3cc(Cl)ccc32)cc1` (stereo not given) was 23.1 µM [rising, partial curve, poor fit].

As to `Cn1nnnc1SCc1nnc(-c2ccc(F)cc2)o1`, under setting [1], the AC50 is 0.366 µM [rising, full curve, poor fit].

As for `CC(C)CC(=O)NC(=S)Nc1nc(-c2ccccc2)cs1`, the AC50 under setting [1] was 0.651 µM [rising, full curve, poor fit]. Still for that read-out and setting: the value for `Cc1ccc2nc(N3CCN(c4ccccc4F)CC3)c(C=O)c(=O)n2c1` was 11.2 µM [rising, partial curve, poor fit]; that for `Cc1cc(N2CCN(C)CC2)nc2ccc(NC(=S)N3CCC4(CC3)OCCO4)cc12` was 1 µM [falling, partial curve, poor fit].

On to `O=C(NCc1ccc2c(c1)OCO2)c1nc(S(=O)(=O)Cc2ccccc2F)ncc1Cl`, for which the AC50 under setting [1] was 35.5 µM [falling, single point]. With `CCCCOc1ccccc1NC(=O)CC1Nc2ccccc2NC1=O` (stereo not given), under setting [1], the AC50 is 14.1 µM [falling, single point].

For `COc1cc(NC(=O)Cn2ncc(Cl)c(Cl)c2=O)c(C)cc1[N+](=O)[O-]`, the AC50 under setting [1] was 3.98 µM [falling, partial curve, poor fit].

Regarding `O=C1c2ccccc2OC2(C=Cc3ccccc3O2)N1Cc1ccccc1` (stereo not given), the AC50 under setting [1] is 29.1 µM [rising, single point]. Regarding `O=C(CSc1nc2nccnc2c(=O)n1Cc1cccs1)Nc1ccccc1F`, the concentration at half-maximal activity (AC50) under setting [1] is 2.51 µM [falling, full curve]. With `Cc1ccc(-n2ccnc2SCC(=O)c2c(N)n(C3CC3)c(=O)[nH]c2=O)cc1C`, the AC50 under setting [1] was 29.1 µM [rising, single point]. Same read-out and setting: the value for `COc1cc(CNC2CCCC2)cc(Cl)c1OCc1ccccc1F` was 16.4 µM [falling, partial curve, poor fit]; that for `CCOC(=O)N1CCN(C(=O)Cn2ccc3ccccc3c2=O)CC1` was 0.00411 µM [rising, full curve, poor fit]. Same read-out and setting: the value for `O=C(NCc1ccccc1)c1ccc2c(c1)C(=O)N(Cc1ccncc1)C2=O` was 14.1 µM [rising, single point]. The same measure, in the same setting: the same measure for `Cc1ccc2[nH]c(CN3CCC(CO)(CC4CCCCO4)CC3)c(C)c2c1` (stereo not given): 22.4 µM [falling, partial curve, poor fit]; for `CC(C)Oc1ccc(C(=O)Nc2ccc(NC(=O)c3ccco3)c(Cl)c2)cc1`: 35.5 µM [rising, single point]. On to `COC(=O)c1c(-c2ccc(SC)cc2)sc2ccccc12`, for which, under setting [1], the AC50 was 20.6 µM [rising, partial curve, poor fit]. In the case of `CN(CC(=O)Nc1cccc(F)c1)C(=O)c1cc(-c2ccccc2)nc2ccccc12`, the AC50 under setting [1] is 29.1 µM [falling, single point]. Still for that read-out and setting: the same measure for `COc1cccc(-c2csc(NC(=O)Nc3ccccc3)n2)c1`: 35.5 µM [falling, single point]. In the case of `Cc1cccc(N=C2NC(=O)/C(=C/c3cccn3C)S2)c1`, the AC50 under setting [1] was 5.62 µM [falling, partial curve, poor fit].

Take `Cc1ccccc1-c1nc(C#N)c(N2CCCCC2)o1`: under setting [1], the AC50 is 7.94 µM [rising, partial curve, poor fit].

Regarding `O=C(O)c1ccc(-n2nc(C(F)(F)F)c3c2CCCC3)cc1`, under setting [1], the AC50 was 29.1 µM [falling, single point] and 11.2 µM [falling, partial curve]. Same read-out and setting: the same measure for `COc1cccc(-c2nc3ccc(O)cc3c(=O)o2)c1`: 0.562 µM [falling, full curve, poor fit]. Same read-out and setting: the same measure for `O=C(Nc1ccccc1)c1cccc(S(=O)(=O)Oc2ccc([N+](=O)[O-])cc2)c1`: 29.1 µM [falling, single point]; for `CCC1=Nc2cc(C(=O)NCc3ccccc3OC)ccc2Sc2ccc(Cl)cc21`: 1.58 µM [rising, full curve, poor fit].

In the case of `N#CCC(=O)Nc1ccc(C(=O)OCC(=O)NCCCc2ccccc2)cc1`, the AC50 under setting [1] is 35.5 µM [falling, single point]. On the same count and under the same terms, the same measure for `Cc1c(C#N)c(N)nc(Cl)c1C#N`: 0.447 µM [falling, full curve, poor fit]. In the case of `Cc1nc2ccc(NC(=O)c3cccs3)cc2c(=O)n1Cc1ccc(Cl)cc1`, under setting [1], the AC50 is 2.59 µM [falling, partial curve, poor fit]. Still for that read-out and setting: the same measure for `Cc1n[nH]c(=S)n1/N=C/c1ccc(Br)o1`: 1 µM [falling, full curve]; for `COC(=O)C1Sc2[nH]c(=O)sc2C(c2ccc(Cl)cc2)C1C(=O)OC` (stereo not given): 7.94 µM [rising, partial curve]. Take `CN(C)S(=O)(=O)c1ccc(NC(=O)c2cc(-c3cccs3)nc3ccccc23)cc1`: the AC50 under setting [2] was 2.31 µM [rising, full curve, poor fit].

In the case of `O=C(CN1C(=O)c2ccccc2S1(=O)=O)N1CCc2ccccc21`, under setting [1], the AC50 was 0.0891 µM [falling, full curve, poor fit]. As for `CCN(CC)CCn1c(/N=C/c2cc(Br)ccc2O)nc2ccccc21`, the AC50 under setting [1] was 11.6 µM [falling, partial curve]. As for `O=C(c1cc(COc2ccc(F)cc2Cl)on1)N1CCCCCC1`, under setting [1], the half-maximal activity concentration (AC50) was 8.91 µM [rising, partial curve, poor fit]. On the same count and under the same terms, the same measure for `O=C(Nc1ccccc1)N(CCCN1CCOCC1)Cc1cc2cc3c(cc2[nH]c1=O)OCCO3`: 2.31 µM [falling, full curve, poor fit]. The same measure, in the same setting: the value for `Fc1ccc(N2CCN(c3cnc4ccccc4n3)CC2)cc1` was 1.78 µM [rising, partial curve, poor fit]; that for `COC(=O)C1=C(N)OC2=C(C(=O)CCC2)C1c1cccs1` (stereo not given) was 29.1 µM [rising, single point]; that for `CCCCNC(=O)CC(C(=O)N1CCc2ccccc21)n1ccnc1` (stereo not given) was 14.6 µM [falling, partial curve, poor fit]. Still for that read-out and setting: the value for `O=C(N/N=C/c1ccc2c(c1)OCO2)c1ccccn1` was 2.82 µM [falling, full curve]. For the compound `O=C(NNC(=O)c1cc(-c2ccccc2)nn1-c1ccccc1)c1ccccc1`, the AC50 is, setting by setting: under setting [1], 18.4 µM [rising, partial curve]; under setting [2], 18.4 µM [falling, single point].

Turning to `CCc1sc(C(C2C(=O)CC(C)(C)CC2=O)C2C(=O)CC(C)(C)CC2=O)cc1[N+](=O)[O-]`, the AC50 under setting [1] is 35.5 µM [falling, single point]. In the case of `NNc1nc(-c2ccccc2)cs1`, the concentration at half-maximal activity (AC50) under setting [1] was 4.47 µM [falling, partial curve]. On the same count and under the same terms, the value for `CN(CC(=O)Nc1ccccc1C(F)(F)F)C(=O)Cn1c(=O)oc2ccccc21` was 18.4 µM [falling, partial curve, poor fit]; that for `Cc1oc(S(=O)(=O)N2CCCC2)cc1C(=O)Nc1ccccc1` was 0.251 µM [falling, full curve, poor fit]; that for `O=C(COC(=O)Cc1ccccc1F)Nc1ccc(SC(F)F)cc1` was 32.6 µM [rising, single point].

For the origin of these results see PubChem BioAssay AID493014 (National Center for Advancing Translational Sciences (NCATS), 2011).
